Values from PubChem BioAssay AID720505 (Drosophila RNAi Screening Center, 2013)

Assay: 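Knock-downs that reduce calcium influx once internal stores are emptied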 (primary screen)
Cell system: Drosophila S2R+ cells
Reagent: long dsRNA against Drosophila genes
Treatment: thapsigargin (2 µM) in calcium-free buffer to empty internal stores, then 2 mM calcium added back
Measured: 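Stores emptied by 2 µM thapsigargin without calcium, then 2 mM calcium re-added; fluo-4 fluorescence followed by FLIPR in 384-well plates, per-well averaged endpoint, raw; two screen passes, some wells retested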
Scale: calcium signal and retest calcium signal: higher = more calcium entry after store depletion
Hit rule: 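About 1500 genes called as lowering calcium entry, by varying amounts, judged against per-plate control wells with STIM1 as positive and Rho1 as negative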
Calls: active = called as lowering calcium entry; inactive = not called
In all, the deposit lists about 20,000 reagents; this is a random part of those with a known target gene and a result. Over the whole deposit, about 2,100 (10%) got an active call. 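Raw plate signals without normalisation; calls rest on control-based scores that were not deposited; replicate 2 separates called from uncalled poorly.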 Not stated in the record: the amount of reagent, the time to read-out.

Prosbeta1 [DRSC07159] | calcium signal, replicate 1 = 90.3; calcium signal, replicate 2 = 121; outcome = inactive
CG6414 [DRSC18401] | calcium signal, replicate 1 = 184; calcium signal, replicate 2 = 145; outcome = inactive
S-Lap2 [DRSC10628] | calcium signal, replicate 1 = 100; calcium signal, replicate 2 = 82.9; outcome = inactive
CG15800 [DRSC04271] | calcium signal, replicate 1 = 133; calcium signal, replicate 2 = 243; outcome = inactive
pita [DRSC04006] | calcium signal, replicate 1 = 73.2; calcium signal, replicate 2 = 85.9; outcome = inactive
pita [DRSC04435] | calcium signal, replicate 1 = 159; calcium signal, replicate 2 = 83.3; outcome = inactive
l(2)05714 [DRSC03118] | calcium signal, replicate 1 = 77.1; calcium signal, replicate 2 = 136; outcome = inactive
CG15111 [DRSC21467] | calcium signal, replicate 1 = 137; calcium signal, replicate 2 = 84.2; outcome = inactive
CG6701 [DRSC07007] | calcium signal, replicate 1 = 138; calcium signal, replicate 2 = 168; outcome = inactive
Gyc89Da [DRSC15008] | calcium signal, replicate 1 = 135; calcium signal, replicate 2 = 175; outcome = inactive
mia [DRSC12137] | calcium signal, replicate 1 = 129; calcium signal, replicate 2 = 104; outcome = inactive
TwdlE [DRSC02392] | calcium signal, replicate 1 = 98.5; calcium signal, replicate 2 = 150; outcome = inactive
CG8323 [DRSC07149] | calcium signal, replicate 1 = 71.2; calcium signal, replicate 2 = 146; outcome = inactive
Cpr64Aa [DRSC08460] | calcium signal, replicate 1 = 71.7; calcium signal, replicate 2 = 82.9; outcome = inactive
Prosalpha3 [DRSC04644] | calcium signal, replicate 1 = 65.6; calcium signal, replicate 2 = 135; outcome = inactive
CG41099 [DRSC21049] | calcium signal, replicate 1 = 143; calcium signal, replicate 2 = 118; outcome = inactive
CG41099 [DRSC21051] | calcium signal, replicate 1 = 125; calcium signal, replicate 2 = 90.3; outcome = inactive
CG6441 [DRSC02957] | calcium signal, replicate 1 = 189; calcium signal, replicate 2 = 74.4; outcome = inactive
CG7208 [DRSC16212] | calcium signal, replicate 1 = 225; calcium signal, replicate 2 = 144; outcome = inactive
CG6059 [DRSC15958] | calcium signal, replicate 1 = 124; calcium signal, replicate 2 = 167; outcome = inactive
nonC [DRSC18366] | calcium signal, replicate 1 = 197; calcium signal, replicate 2 = 125; outcome = inactive
nonC [DRSC18367] | calcium signal, replicate 1 = 227; calcium signal, replicate 2 = 189; outcome = inactive
CG4036 [DRSC02735] | calcium signal, replicate 1 = 128; calcium signal, replicate 2 = 160; outcome = inactive
CG10211 [DRSC02027] | calcium signal, replicate 1 = 66; calcium signal, replicate 2 = 95.9; outcome = active
Syb [DRSC07559] | calcium signal, replicate 1 = 150; calcium signal, replicate 2 = 220; outcome = inactive
wntD [DRSC16423] | calcium signal, replicate 1 = 155; calcium signal, replicate 2 = 218; outcome = inactive
CG13159 [DRSC06283] | calcium signal, replicate 1 = 49.1; calcium signal, replicate 2 = 49; retest calcium signal, replicate 1 = 116; retest calcium signal, replicate 2 = 209; outcome = active
Cyp4s3 [DRSC20241] | calcium signal, replicate 1 = 95.1; calcium signal, replicate 2 = 93.4; outcome = inactive
Cyp4s3 [DRSC22340] | calcium signal, replicate 1 = 109; calcium signal, replicate 2 = 179; outcome = inactive
